Assay results as given in publication PMC3400628.
No constants are given. Whether binding was seen depends on the method and setting. For some assays here: Binding seen in cells or lysates may run through a third protein. Some results given as binding are weak or reduced against the parent protein; the word gives no strength. Sequences can lack the tags named with a protein.

T1: human TRIM8 (yeast two-hybrid fusion) (human) (UniProt Q9BZR9)
T1 sequence: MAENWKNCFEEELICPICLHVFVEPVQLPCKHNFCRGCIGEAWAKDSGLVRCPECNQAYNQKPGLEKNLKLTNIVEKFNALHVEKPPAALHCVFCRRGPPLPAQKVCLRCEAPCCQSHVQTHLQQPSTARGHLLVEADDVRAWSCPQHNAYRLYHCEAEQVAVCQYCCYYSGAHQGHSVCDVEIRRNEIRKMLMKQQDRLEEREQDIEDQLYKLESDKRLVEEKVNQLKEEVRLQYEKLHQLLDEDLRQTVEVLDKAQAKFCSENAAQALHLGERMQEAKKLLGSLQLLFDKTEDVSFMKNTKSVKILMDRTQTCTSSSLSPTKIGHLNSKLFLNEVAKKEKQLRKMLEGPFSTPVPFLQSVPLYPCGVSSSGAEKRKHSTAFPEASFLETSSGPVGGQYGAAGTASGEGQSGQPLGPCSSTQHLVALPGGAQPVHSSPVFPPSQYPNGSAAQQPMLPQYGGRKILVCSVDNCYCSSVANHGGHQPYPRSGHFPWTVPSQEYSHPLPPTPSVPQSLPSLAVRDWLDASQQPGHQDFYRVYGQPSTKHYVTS

T2: human TRIM18 (yeast two-hybrid fusion) (human) (UniProt O15344)
T2 sequence: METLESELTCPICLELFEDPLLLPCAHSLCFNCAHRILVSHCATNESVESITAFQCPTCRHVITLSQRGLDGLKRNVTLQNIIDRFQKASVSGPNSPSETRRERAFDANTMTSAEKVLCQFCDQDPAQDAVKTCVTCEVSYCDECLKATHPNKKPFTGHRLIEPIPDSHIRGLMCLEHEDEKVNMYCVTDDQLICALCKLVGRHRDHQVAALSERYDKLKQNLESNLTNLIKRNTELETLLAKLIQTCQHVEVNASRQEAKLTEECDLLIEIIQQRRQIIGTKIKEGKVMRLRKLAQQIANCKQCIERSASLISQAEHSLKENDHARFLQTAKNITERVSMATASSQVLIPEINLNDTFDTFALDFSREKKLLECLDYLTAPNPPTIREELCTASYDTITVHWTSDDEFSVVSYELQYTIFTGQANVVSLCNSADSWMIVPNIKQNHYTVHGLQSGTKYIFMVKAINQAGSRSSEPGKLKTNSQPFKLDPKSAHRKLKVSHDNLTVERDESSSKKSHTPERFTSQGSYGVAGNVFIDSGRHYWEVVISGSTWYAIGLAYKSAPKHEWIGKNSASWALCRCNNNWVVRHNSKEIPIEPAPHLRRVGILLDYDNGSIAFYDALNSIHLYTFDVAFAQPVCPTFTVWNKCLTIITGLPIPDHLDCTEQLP

B1: TRIM27 ΔRING (3xmyc vector) (domain or fragment, UniProt P14373 63-513)
chain: RHMRPNRHLANVTQLVKQLRTERPSGPGGEMGVCEKHREPLKLYCEEDQMPICVVCDRSREHRGHSVLPLEEAVEGFKEQIQNQLDHLKRVKDLKKRRRAQGEQARAELLSLTQMEREKIVWEFEQLYHSLKEHEYRLLARLEELDLAIYNSINGAITQFSCNISHLSSLIAQLEEKQQQPTRELLQDIGDTLSRAERIRIPEPWITPPDLQEKIHIFAQKCLFLTESLKQFTEKMQSDMEKIQELREAQLYSVDVTLDPDTAYPSLILSDNLRQVRYSYLQQDLPDNPERFNLFPCVLGSPCFIAGRHYWEVEVGDKAKWTIGVCEDSVCRKGGVTSAPQNGFWAVSLWYGKEYWALTSPMTALPLRTPLQRVGIFLDYDAGEVSFYNVTERCHTFTFSHATFCGPVRPYFSLSYSGGKSAAPLIICPMSGIDGFSGHVGNHGHSMETSP
B2: TRIM27 ΔRING+BBox (3xmyc vector) (domain or fragment, UniProt P14373 133-513)
chain: EEAVEGFKEQIQNQLDHLKRVKDLKKRRRAQGEQARAELLSLTQMEREKIVWEFEQLYHSLKEHEYRLLARLEELDLAIYNSINGAITQFSCNISHLSSLIAQLEEKQQQPTRELLQDIGDTLSRAERIRIPEPWITPPDLQEKIHIFAQKCLFLTESLKQFTEKMQSDMEKIQELREAQLYSVDVTLDPDTAYPSLILSDNLRQVRYSYLQQDLPDNPERFNLFPCVLGSPCFIAGRHYWEVEVGDKAKWTIGVCEDSVCRKGGVTSAPQNGFWAVSLWYGKEYWALTSPMTALPLRTPLQRVGIFLDYDAGEVSFYNVTERCHTFTFSHATFCGPVRPYFSLSYSGGKSAAPLIICPMSGIDGFSGHVGNHGHSMETSP
B3: TRIM27 PRY-SPRY domain alone (3xmyc vector) (domain or fragment, UniProt P14373 296-513)
chain: EKMQSDMEKIQELREAQLYSVDVTLDPDTAYPSLILSDNLRQVRYSYLQQDLPDNPERFNLFPCVLGSPCFIAGRHYWEVEVGDKAKWTIGVCEDSVCRKGGVTSAPQNGFWAVSLWYGKEYWALTSPMTALPLRTPLQRVGIFLDYDAGEVSFYNVTERCHTFTFSHATFCGPVRPYFSLSYSGGKSAAPLIICPMSGIDGFSGHVGNHGHSMETSP
B4: human TRIM8 (yeast two-hybrid fusion) (protein, UniProt Q9BZR9 1-551)
chain: T1 sequence
B5: human TRIM18 (yeast two-hybrid fusion) (protein, UniProt O15344 1-667)
chain: T2 sequence

Assays:
Flag-NOD2 (human) = Flag-NOD2 (human) (UniProt Q9HC29)
[1] = target: T1, human TRIM8 (yeast two-hybrid fusion) (human); assay: two-hybrid; binary LexA/B42 yeast two-hybrid; baits in pEG202, preys in pJG4-5; EGY42/EGY48 diploids by mating; reporters lacZ (blue colonies) and LEU2 (growth without Leu)
[2] = target: T2, human TRIM18 (yeast two-hybrid fusion) (human); assay: as above

| Binder | binding (Flag-NOD2 (human)) | further results |
| --- | --- | --- |
| B1 | binds | – |
| B2 | binds | – |
| B3 | binds | – |
| B4 | – | binding [1]: binds |
| B5 | – | binding [2]: binds |
